Screen size: about 1,800 compounds; fewer than 10 were called active.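 How the source made its calls: active means inhibition of granule release above a set limit; inactive means the rest.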 The list shows a part of the results.

This assay in a line: LAMP-1 surface externalization blockers in TALL-104 cells – cell-based, flow cytometry, validation set (AID 651664). Particulars: TALL-104 LAMP-1 externalization, at 15.2 µM, stronger effect = higher value, stimulated with thapsigargin and PMA. On the technique in general: A flow cytometer gives signals particle by particle.
Take `Cc1nc2scc(-c3ccccc3)c2c(=O)n1/N=C/c1ccco1`: the inhibition was inactive: -0.2%. Regarding `O=C(Nc1ccc(-c2nnc(-c3ccccc3)o2)cc1)c1ccc(Br)o1`, the inhibition is inactive: -0.8%.

For the molecule `CCOc1ccc(N2C(=O)CN=C2Nc2ccccc2Cl)cc1`, the inhibition was inactive: -1.6%.

As for `S=C(NCc1ccccn1)Nc1ccc(Cl)cc1`, the inhibition is inactive: 0.7%. The value for `CCOc1ccc(C(C)=O)cc1CC(C(N)=O)C(N)=O` was inactive: 2.9%; that for `Cc1ccc2nc(Nc3nc(-c4ccccc4)cc(=O)[nH]3)nc(C)c2c1` was inactive: 0.7%.

For the molecule `Cc1ccc(-n2ncc3c(NCc4ccccc4)ncnc32)cc1`, the inhibition is inactive: -1.8%.

Regarding `CCOc1ccc(-c2nc(N)ncc2Oc2cccc(OC)c2)c(O)c1`, the inhibition is inactive: 2.1%.

Regarding `Cc1cc(OCC(=O)Nn2cnnc2)c(C)cc1Br`, the inhibition is inactive: -1.3%. With `Cc1ccc(NC(=O)CSc2nccn2Cc2ccccc2)cc1C`, the inhibition is inactive: 0.1%. The value for `O=C(CCn1cccc1)NCc1ccccc1` was inactive: -1.5%. Take `O=C(c1ccccc1)c1nn(-c2cccc(Cl)c2)c2nc(-c3ccccc3)cc(=O)n12`: the inhibition was inactive: 2.8%. The figure for `N#CC(C(=O)C12CC3CC(CC(C3)C1)C2)c1nc2ccccc2[nH]1` (stereo unspecified) is inactive: -4.7%; for `COc1cc(C)nc(OCCNC(=O)COc2ccc(Cl)cc2C)n1` it is inactive: -0.8%.

In the case of `O=C(Nc1cccc(-c2nnc(-c3ccccc3)o2)c1)c1ccco1`, the inhibition was inactive: 6.9%.

For `COc1ccc(-c2noc(Cc3cccs3)n2)cc1`, the inhibition is inactive: 0.2%. As to `COc1ccccc1-c1n[nH]c2c1[C@H](C)CC[C@H]2C(C)C`, the inhibition is inactive: 0.1%. The value for `CCCn1c(SCC(=O)NC2CCCC(C)C2C)n[nH]c1=O` (stereo unspecified) was inactive: -1%.

Take `N#Cc1cn(-c2ccccc2)nc1C(=O)c1ccccc1`: the inhibition is inactive: 2.8%. On to `O=C(CCN1CCc2ccccc21)c1ccc2c(c1)OCCO2`, for which the inhibition was inactive: 2.5%. Regarding `CC1CCN(c2ccccc2NC(=S)NC(=O)c2ccco2)CC1`, the inhibition is inactive: -1.7%. Turning to `O=C(NCC1CCN(c2ccc(S(=O)(=O)N3CCOCC3)cc2)CC1)c1ccc(Cl)cc1`, the inhibition is inactive: -2.9%. Turning to `Oc1ccccc1Oc1ncc(Br)c(N2CCOCC2)n1`, the inhibition was inactive: 1.2%. The figure for `Cc1ccc(C)c(S(=O)(=O)Nc2ccc(S(=O)(=O)Nc3onc(C)c3C)cc2)c1` is inactive: 0.4%; for `Oc1ccccc1N=Nc1nc(-c2ccccc2)c(-c2ccccc2)[nH]1` it is inactive: -2.4%; for `O=c1[nH]n(-c2ncnc3c2cnn3-c2ccccc2)c(=O)c2ccccc12` it is inactive: -0.6%. Take `CCC(=O)c1ccc(N2CCN(C(=O)COc3ccc(F)cc3)CC2)c(F)c1`: the inhibition was inactive: -4.4%. Consider `COc1ccc(OC)c2c1CCC2=O`, for which the inhibition is inactive: 1.5%. The value for `COC(=O)COc1ccc2c(-c3cccc([N+](=O)[O-])c3)cc(=O)oc2c1` was inactive: 0%; that for `c1ccc(CN2CCN(c3ncnc4c3[nH]c3ccccc34)CC2)cc1` was inactive: -1.5%; that for `Cc1ccc(C(=O)/C=C2\NCC(C)NC2=O)cc1` (stereo unspecified) was inactive: -1.4%. Take `NC(=O)NC(=O)CSc1nc(-c2ccccc2)c(-c2ccccc2)n1CC1CCCO1` (stereo unspecified): the inhibition was inactive: 3.8%. Take `COC(=O)c1cc2ccc(OC)c(OC)c2c(=O)s1`: the inhibition is inactive: 0.9%. The value for `Cc1[nH]c2ccc(-c3nnc(SCC(=O)NCc4ccco4)n3Cc3ccccc3)cc2c1C` was inactive: -1.9%; that for `Cc1ccc(-n2ncc3c(=O)n(CC#N)cnc32)cc1C` was inactive: 2.4%.

In the case of `CCN(Cc1ccccc1)C(c1ccc(C)cc1)c1nnnn1C(C)(C)CC` (stereo unspecified), the inhibition was inactive: -2.8%. The value for `COC(=O)c1ccc(C(=S)N2CCOCC2)cc1` was inactive: -1.3%; that for `COc1ccc(S(=O)(=O)Nc2nc(C(F)(F)F)cs2)cc1` was inactive: -0.5%; that for `O=C(CSc1nc2c(c(C(F)(F)F)n1)CCc1ccccc1-2)NCc1ccccc1` was inactive: -1%. As to `Nc1cc2nsnc2cc1Br`, the inhibition is inactive: -1.1%. Regarding `COc1ccccc1CN(Cc1cc2c(C)ccc(C)c2[nH]c1=O)Cc1nnnn1Cc1ccco1`, the inhibition was inactive: -1.3%.

As to `Cc1cccc(CC(Cc2nc3ccccc3[nH]2)c2nc3ccccc3[nH]2)c1` (stereo unspecified), the inhibition was active: 94.4%. As to `CCc1nc(NCCCN2CCOCC2)c2oc3ccccc3c2n1`, the inhibition is inactive: -0.8%. `COc1ccc(NC(=O)c2ccc(-n3nc(C)cc3C)cc2)cc1OC`: the inhibition was inactive: -1.2%. Take `O=C(CN1CCN(c2ncccn2)CC1)NCc1ccccc1`: the inhibition is inactive: 1.3%. The figure for `CCOc1ccc(-c2nnn(CC(=O)NCc3ccc4c(c3)OCO4)n2)cc1` is inactive: 4%; for `O=C(O)C1CC(=O)n2c(nc3ccccc32)S1` (stereo unspecified) it is inactive: 2.4%. The value for `Cn1c(N)c(C(=O)COC(=O)c2ccco2)c(=O)n(C)c1=O` was inactive: 0.8%; that for `O=C(COC(=O)c1ccco1)Nc1ccc2c(c1)OCCO2` was inactive: 2.2%. The figure for `COc1ccc2c(Cl)c(C(=O)NCCCn3ccnc3)sc2c1Cl` is inactive: 0.4%; for `Cc1ccc(-c2nc(-c3ccccc3)no2)cc1` it is inactive: 3.2%.

Take `O=C(CCN1CCCC1)Nc1cccc(Br)c1`: the inhibition is inactive: -0.1%. As for `C[N+]1(CCOc2ccc([N+](=O)[O-])cc2)CCOCC1`, the inhibition is inactive: -1.2%. The figure for `Cc1ccc(O)c(NC(=O)CCC2CCCCC2)c1` is inactive: -2.6%; for `CC1Cc2ccccc2N1S(=O)(=O)c1cccc(C(=O)NCCCO)c1` (stereo unspecified) it is inactive: -1.2%.

Take `O=C(CN1C(=O)C2C3C=CC(C3)C2C1=O)Nc1nc2ccccc2[nH]1` (stereo unspecified): the inhibition is inactive: 4.5%. In the case of `CCc1nc(-c2ccc(C)nc2OC)no1`, the inhibition is inactive: 0.4%. The value for `COc1cccc(CNC(=O)C2CCN(Cc3cnn(-c4ccccc4)c3-n3cccc3)CC2)c1` was inactive: -1.9%. `CCOC(=O)N1CCN(c2ncnc3c2cnn3-c2ccc(OC)cc2)CC1`: the inhibition was inactive: -3.2%. The value for `Clc1ccc(Sc2cnc3ccccc3n2)cc1` was inactive: 11.7%.

For `O=[N+]([O-])c1ccc(Cl)cc1Sc1cccc2cccnc12`, the inhibition is inactive: 3.9%. On to `COC(=O)[C@H](Cc1ccccc1)NC(=O)N1CC(C)OC(C)C1` (stereo partly specified), for which the inhibition was inactive: -1.3%. The value for `O=[N+]([O-])c1cc(S(=O)(=O)Nc2cccc(C(F)(F)F)c2)ccc1-n1nnc2ccccc21` was inactive: 2.7%; that for `N#CC(c1ccc(F)cc1)c1ccc(C(=O)c2ccccc2)cc1` (stereo unspecified) was inactive: -0.3%.

Turning to `Cc1cc(C(=O)CSc2nnc(-c3ccc(F)cc3)o2)c(C)n1CC1COc2ccccc2O1` (stereo unspecified), the inhibition was inactive: -0.6%.

For the molecule `CCN(CC)C(=O)C1CCCN(c2ccc([N+](=O)[O-])cc2/C=N/NC(=O)c2cccc(O)c2)C1` (stereo unspecified), the inhibition is inactive: -3.4%. `Cc1cc(C)c(NC(=O)CN2CCOCCOCCOCCOCC2)c(C)c1`: the inhibition is inactive: 2.5%. In the case of `COc1ccc(-c2nc(C#N)c(NCCc3ccccc3)o2)cc1OC`, the inhibition was inactive: 4.3%.

On to `Cc1ccc(Nc2nc(C)cc(C)c2C(N)=O)cc1`, for which the inhibition was inactive: -1.3%. Turning to `COC(=O)c1ccc(NC(=S)Nc2ccc3ccccc3c2)cc1`, the inhibition is inactive: -0.9%. In the case of `OCCSc1ncnc2c1oc1ccccc12`, the inhibition is inactive: -1.3%. Take `CCc1ccc2c(c1)c(N=NC1=NC(=O)CS1)c(O)n2CC`: the inhibition was inactive: -0.4%.

Take `O=C(Nc1cc(C(F)(F)F)ccc1N1CCOCC1)c1cccnc1Cl`: the inhibition was inactive: -2.8%. In the case of `CC(=O)COc1ncn(-c2ccccc2)n1`, the inhibition was inactive: 0.2%. The figure for `COc1ccc(/C=N/NC(=O)c2nonc2C)cc1` is inactive: -1%; for `CC1(C)Cc2c(sc3ncn4nc(-c5ccco5)nc4c23)CO1` it is inactive: -1.3%. The figure for `COC(=O)CCCCC1SCC(NC(=O)OC)C1NC(=O)OC` (stereo unspecified) is inactive: 3%. The value for `CCCOc1cccc(C(=O)N(Cc2ccco2)C2CCS(=O)(=O)C2)c1` (stereo unspecified) was inactive: 1.4%; that for `Cc1ccc2nsnc2c1NC(=O)c1ccc(-c2cc(Cl)ccc2Cl)o1` was inactive: -2.2%; that for `COc1ccc(N(C(=O)c2ccc(Cl)cc2)C2=CC3CCC(C2)N3C)cc1` (stereo unspecified) was inactive: 0.4%. Turning to `COc1ccc(CCC(=O)Nc2nc3ccccc3[nH]2)cc1OC`, the inhibition is inactive: -1.5%. `CC1CCCCC1NC(=O)C(=O)NCC1CCCO1` (stereo unspecified): the inhibition was inactive: 1.7%.

As for `Cc1cc2ccccc2nc1SCC(=O)N1c2ccccc2CC1C` (stereo unspecified), the inhibition was inactive: -0.9%. Regarding `O=C1c2ccccc2NC(c2ccc(Cl)cc2Cl)N1O` (stereo unspecified), the inhibition is inactive: -2.2%.

On to `O=c1cc(N2CCc3ccccc3C2)[nH]c(=O)n1C1CCCCC1`, for which the inhibition is inactive: 8.4%. The value for `COc1ccc(Oc2nccc(-c3ccccc3)c2C#N)cc1` was inactive: 0.4%.

For `COc1ccc2c(c1)-c1nc(NC(=O)c3cccs3)sc1CC2`, the inhibition was inactive: -4.8%. Consider `CCN(CC)C(=O)C(=O)N/N=C/c1cccc(Br)c1`, for which the inhibition is inactive: -5.5%. The figure for `CCNc1nc(NCC)nc(OCCOC(=O)COc2ccc(Cl)cc2Cl)n1` is inactive: -2.4%; for `O=C(C[n+]1cc2ccccc2c2ccccc21)c1ccccc1` it is inactive: 0.7%.

With `OC(CN1CCN(c2ccccc2)CC1)c1c[nH]c2ccccc12` (stereo unspecified), the inhibition is inactive: -2.6%. The value for `Cc1cc2c(c(N3CCOCC3)n1)C(=O)OC2` was inactive: 1.8%; that for `O=C(CSc1nc2ccccc2[nH]1)Nc1ccc2c(c1)OCCO2` was inactive: 0.8%; that for `Cc1ccc(CN2C(=O)CCC2C(=O)NC(C)C)cc1` (stereo unspecified) was inactive: 2.8%.

As to `CCOc1cc(CNCCO)cc(Br)c1OCc1ccc(Cl)cc1Cl`, the inhibition was inactive: -1.4%. Consider `O=C(NCc1ccc(F)cc1)c1ccc(CS(=O)(=O)Cc2ccccc2F)o1`, for which the inhibition was inactive: -3.1%.

Turning to `CCOC(=O)CSc1nnc(-c2ccccc2)o1`, the inhibition was inactive: -0.2%. The value for `COc1ccc(Cc2c(N)nc(N)nc2N)cc1` was inactive: 3.1%; that for `CS(=O)(=O)C1=C(O)C(=O)N(c2ccccc2)C1c1ccccc1` (stereo unspecified) was inactive: -2.2%; that for `COc1ccccc1-c1nc(C(N)=O)c2[nH]c(=O)n(-c3cccc(C)c3)c2n1` was inactive: -0.5%.

On to `O=C(NC1CCC(C(=O)O)CC1)OCc1ccccc1` (stereo unspecified), for which the inhibition is inactive: 43.7%.

As usually defined, the inhibition is the relative decrease from the control value, in per cent.

(Values after PubChem BioAssay AID651664 (NMMLSC, 2012).)
